We go through 1 substance from PMC11898743.

Sequences of proteins named here, by UniProt entry; tags and fusion partners are left off.
UniProt Q93034: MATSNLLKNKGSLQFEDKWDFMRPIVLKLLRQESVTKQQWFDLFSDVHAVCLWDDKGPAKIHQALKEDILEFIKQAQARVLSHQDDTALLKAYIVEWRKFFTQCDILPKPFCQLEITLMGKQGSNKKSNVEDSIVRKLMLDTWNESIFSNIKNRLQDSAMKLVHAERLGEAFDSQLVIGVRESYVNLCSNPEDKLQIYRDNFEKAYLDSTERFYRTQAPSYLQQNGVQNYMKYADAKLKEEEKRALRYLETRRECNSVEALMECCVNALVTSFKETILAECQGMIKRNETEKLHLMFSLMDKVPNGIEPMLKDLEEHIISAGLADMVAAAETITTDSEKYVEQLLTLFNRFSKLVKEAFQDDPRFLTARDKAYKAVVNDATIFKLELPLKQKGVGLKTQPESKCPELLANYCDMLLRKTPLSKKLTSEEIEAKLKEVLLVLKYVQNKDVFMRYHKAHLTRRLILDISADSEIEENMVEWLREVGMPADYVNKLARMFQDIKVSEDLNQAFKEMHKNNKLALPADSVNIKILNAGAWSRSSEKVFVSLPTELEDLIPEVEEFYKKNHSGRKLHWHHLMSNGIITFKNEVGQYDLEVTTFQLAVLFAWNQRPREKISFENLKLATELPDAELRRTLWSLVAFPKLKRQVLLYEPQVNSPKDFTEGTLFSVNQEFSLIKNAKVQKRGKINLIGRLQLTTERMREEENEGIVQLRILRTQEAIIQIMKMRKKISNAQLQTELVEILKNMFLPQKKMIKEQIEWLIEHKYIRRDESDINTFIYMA

No constants are given. Whether binding was seen depends on the method and setting. Some entries that bind do so weakly or less than the wild type.

The assay deals with HIS-tagged cullin5 (HIS-Cul5), residues 1-780 (UniProt Q93034). Briefly: co-purification of co-expressed proteins; HIS-Cul5/Rbx2 coexpressed in E. coli; Ni-Sepharose by the HIS tag of Cul5, then Superdex 200 gel filtration.

Consider “Rbx2, residues 1-113 (from UniProt Q9UBF6-1 1-113)”, for which the binding entry is listed as “binds”.
